Some of the results follow.

The target in the experiment is T1, OsSMF1 (Oryza sativa, UniProt Q6ZLB0 1-436).
T1 sequence: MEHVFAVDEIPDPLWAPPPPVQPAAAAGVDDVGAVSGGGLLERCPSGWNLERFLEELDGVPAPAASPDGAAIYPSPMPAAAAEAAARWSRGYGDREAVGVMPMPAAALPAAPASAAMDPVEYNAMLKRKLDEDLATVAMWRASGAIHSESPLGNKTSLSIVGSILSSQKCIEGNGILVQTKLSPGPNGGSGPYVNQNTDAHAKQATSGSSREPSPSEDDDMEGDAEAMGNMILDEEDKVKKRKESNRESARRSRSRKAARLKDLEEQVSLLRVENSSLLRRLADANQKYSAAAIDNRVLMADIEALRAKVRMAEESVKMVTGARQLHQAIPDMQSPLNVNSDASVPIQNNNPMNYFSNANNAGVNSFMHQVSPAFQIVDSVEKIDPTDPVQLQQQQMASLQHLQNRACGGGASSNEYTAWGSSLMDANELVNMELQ
The experiment in a line: protein-binding microarray (RPBM); PBS, 2% BSA, 51.3 ng/ul salmon testes DNA, 50 uM zinc acetate, 200 nM TF, 25 C, 1 h; high values mean tight binding. As to conditions: protein: recombinant; tags: N-terminal polyhistidine and DsRed monomer fusion (pET32a); chain copies: 2; label: CyDye5-dUTP incorporated in the synthesized complementary strand; 3' TTTTT single-stranded linker to array surface; dsDNA, one strand shown. Put shortly:
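Transcription factors were made in E. coli BL21-CodonPlus as N-terminal fusions to a polyhistidine tag and DsRed, then purified on Ni–NTA. After primer extension with Cy5-dUTP and blocking with 2% BSA, a custom Agilent array was exposed for 1 h at 25 °C to 200 nM protein in PBS, 2% BSA, salmon testes DNA and 50 µM zinc acetate. Washed arrays were scanned on an Axon 4000B, and the binding signal is per-feature fluorescence intensity in arbitrary units.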
In the case of “CACAGTGGGCGGAACCCCAAGCGCATGGACACGGGTCTGCCGGAGTCACCTAGTGCAG”, the binding signal is 36800 fluorescence intensity (a.u.).
Turning to “TCAATCCCAACAAAAGTTGTTTGAGCTGTGTATAAGGAGACGGAGTCACCTAGTGCAG”, the binding signal was 34300 fluorescence intensity (a.u.).
As for “GATAGGAAATGGCCTGGTCCATGTGGCACGGTGGTGAACACGGAGTCACCTAGTGCAG”, the binding signal was 4320 fluorescence intensity (a.u.).
The result for “ACCCATGGACGCGCTCAAGCCCTGACCATGGCGTACGTACCGGAGTCACCTAGTGCAG” reads 3870 fluorescence intensity (a.u.); that for “TGGCTGTGGTGACTTAAAATCCACGTGTAACCACACCTGCCGGAGTCACCTAGTGCAG”, 15700 fluorescence intensity (a.u.); that for “AACTTATGTAAAGATGTATATTGTTAAGTGAAAATATTGACGGAGTCACCTAGTGCAG”, 3220 fluorescence intensity (a.u.).
The result for “AGCCATGAACATGTGGCATATAAACTACCTGATCGCTACACGGAGTCACCTAGTGCAG” reads 3820 fluorescence intensity (a.u.); that for “ATGTGTATGATGTGTTTGTTTATGTGTGGACTTTATAATACGGAGTCACCTAGTGCAG”, 4020 fluorescence intensity (a.u.).
Turning to “TTGCCGGTTTGTGCGGCAAGACGTGGCTTAACCTGTGCGTCGGAGTCACCTAGTGCAG”, the binding signal is 3780 fluorescence intensity (a.u.).
The result for “ATCTAGACATGTATATATGTGTTTAGATTCATTAACATCTCGGAGTCACCTAGTGCAG” reads 6380 fluorescence intensity (a.u.).
Take “TGCTCTGCGCGTTCTTGATGTTTGTCAGCAGCTACTTGCACGGAGTCACCTAGTGCAG”: the binding signal is 3490 fluorescence intensity (a.u.).
In the case of “TACTCCGGCTAACAAGTACAGTAGTAATAACCAATTGAACCGGAGTCACCTAGTGCAG”, the binding signal is 3200 fluorescence intensity (a.u.).
On to “CCTGCCCGGTGTGCTGTGACTTGCCGTTATCGTCACCGTTCGGAGTCACCTAGTGCAG”, for which the binding signal is 6230 fluorescence intensity (a.u.).
The result for “GATCCTTTCAAGCTTCCTCGCCAAGTCAATCGAGATCATGCGGAGTCACCTAGTGCAG” reads 3700 fluorescence intensity (a.u.).
Regarding “CCAGCCAAGGCAGCAACGTGACGATATCCACCTCGAAGATCGGAGTCACCTAGTGCAG”, the binding signal is 3920 fluorescence intensity (a.u.).
For “AATTAAAGACTCCTCCTTGTTTGCGCACGCTCACTCGCGCCGGAGTCACCTAGTGCAG”, the binding signal was 3230 fluorescence intensity (a.u.).
In the case of “GGTACGCCAACGTCAGCACCGGCGATCTCCCGGCGAGCGTCGGAGTCACCTAGTGCAG”, the binding signal was 6510 fluorescence intensity (a.u.).
The result for “CGTCGGTTTCTGATCGGAACAGGGCCGATCGAGAGTGCGACGGAGTCACCTAGTGCAG” reads 24600 fluorescence intensity (a.u.); that for “CATGTCGGCCGACCGTTGCGCCCGCCGTGCCGCTGCCACCCGGAGTCACCTAGTGCAG”, 14800 fluorescence intensity (a.u.).
“CCGCGCCGAGGGCTGTGACGTGTCGACCGAGCCAAGAACCCGGAGTCACCTAGTGCAG”: the binding signal is 9000 fluorescence intensity (a.u.).
Consider “TGCGGGCTCCGCTGCTGAATATGACTCAAACAATTTTACTCGGAGTCACCTAGTGCAG”, for which the binding signal was 3660 fluorescence intensity (a.u.).
The result for “TCTGCGTTCTACTTCGCTATGACGTAGAACCTTGTGCGTCCGGAGTCACCTAGTGCAG” reads 5280 fluorescence intensity (a.u.).
“ATTCTCGATTTAACACTAATCATCATTATCCTAATAACCACGGAGTCACCTAGTGCAG”: the binding signal was 3220 fluorescence intensity (a.u.).
As for “TGTAAGCACCACGTTAATGCCACATCAGATAAAGACCAAGCGGAGTCACCTAGTGCAG”, the figure is 10900 fluorescence intensity (a.u.); as for “GTATATGCGTCATGTGCGTCTTCCCTGTCACGAGTGCGTGCGGAGTCACCTAGTGCAG”, 7200 fluorescence intensity (a.u.); as for “TAGAGAGTGGCATATAGGTTTACTTAAAAGCCATGGGATCCGGAGTCACCTAGTGCAG”, 25500 fluorescence intensity (a.u.).
The result for “ATAACGGCCGCCACAACGACCCCGCGTCACCCTAGGGCATCGGAGTCACCTAGTGCAG” reads 6420 fluorescence intensity (a.u.); that for “CCTTAATCTCGTCATGGTGTCGATGTTTGCAACTATGTTCCGGAGTCACCTAGTGCAG”, 3460 fluorescence intensity (a.u.); that for “TTCATGCTCATTCGCGTACCTATTGCCAACCGGACAATGTCGGAGTCACCTAGTGCAG”, 3620 fluorescence intensity (a.u.).
In the case of “AGGGTTCAACGAGTCACGCTCACGACAAACCTCTACTCTCCGGAGTCACCTAGTGCAG”, the binding signal was 3400 fluorescence intensity (a.u.).
The result for “CCGCGCAGACTTTATACAGAGAGCCGTTGACACGGTGTCCCGGAGTCACCTAGTGCAG” reads 3660 fluorescence intensity (a.u.).
In the case of “CCTGTCAATTCCAATTGCCAGCGCACGCTTTTCTTCTGGACGGAGTCACCTAGTGCAG”, the binding signal was 4850 fluorescence intensity (a.u.).
As for “GAGAGATGACGTTGAGTTGGAGTAAGCTGCCCTGGGGTCACGGAGTCACCTAGTGCAG”, the figure is 3800 fluorescence intensity (a.u.).
The result for “ATGAATCCGATAAGCCCTATATGCTCTGAGAATGATCTACCGGAGTCACCTAGTGCAG” reads 3540 fluorescence intensity (a.u.).
Turning to “ATGACGGCCTATGTATGCCTGAGTTTGGCTTGTTTGATAGCGGAGTCACCTAGTGCAG”, the binding signal is 24700 fluorescence intensity (a.u.).
Take “CTCTCATCGAAAAGTTTGGACCCAAGCTGCAAACGTGGCACGGAGTCACCTAGTGCAG”: the binding signal is 8490 fluorescence intensity (a.u.).
The result for “AGAAGGTACGAAGTTCTATCTCTCTCTAGAATTCTATAGGCGGAGTCACCTAGTGCAG” reads 38100 fluorescence intensity (a.u.); that for “GCACAACATTAGAAATGCAAGTGGTCGACCCACGAACCCACGGAGTCACCTAGTGCAG”, 3250 fluorescence intensity (a.u.); that for “AGGGCGAGGAGGCGCTTGAGGGCGTCGAGCTTGTCGGCATCGGAGTCACCTAGTGCAG”, 28400 fluorescence intensity (a.u.).
The result for “GCACACGGCTCGCTCCCCGTTCCCCGTCACGCGGTCAACCCGGAGTCACCTAGTGCAG” reads 6150 fluorescence intensity (a.u.); that for “TGTTGAACCAATTAGTGCGTGTCACTATATCTAGAAGTTCCGGAGTCACCTAGTGCAG”, 3930 fluorescence intensity (a.u.); that for “GCCATTATCACTGGCGGATTGGTGACGTGGGCCGTCAGTGCGGAGTCACCTAGTGCAG”, 20800 fluorescence intensity (a.u.).

The values above are taken from article PMC7819943, “Rice protein-binding microarrays: a tool to detect cis-acting elements near promoter regions in rice”.
